These are yes or no findings as the source states them, for the method shown. Binding seen in cells or lysates may run through a third protein.
Tests used:
Assay in all cases: pull-down; transporter and TASL co-transfected in Expi293F; DDM/CHS lysate on Strep-Tactin beads, eluted with desthiobiotin; western blot with anti-GFP-HRP
[1] = target: T1, full-length human PHT2 (human) (UniProt Q8IY34)
T1 sequence: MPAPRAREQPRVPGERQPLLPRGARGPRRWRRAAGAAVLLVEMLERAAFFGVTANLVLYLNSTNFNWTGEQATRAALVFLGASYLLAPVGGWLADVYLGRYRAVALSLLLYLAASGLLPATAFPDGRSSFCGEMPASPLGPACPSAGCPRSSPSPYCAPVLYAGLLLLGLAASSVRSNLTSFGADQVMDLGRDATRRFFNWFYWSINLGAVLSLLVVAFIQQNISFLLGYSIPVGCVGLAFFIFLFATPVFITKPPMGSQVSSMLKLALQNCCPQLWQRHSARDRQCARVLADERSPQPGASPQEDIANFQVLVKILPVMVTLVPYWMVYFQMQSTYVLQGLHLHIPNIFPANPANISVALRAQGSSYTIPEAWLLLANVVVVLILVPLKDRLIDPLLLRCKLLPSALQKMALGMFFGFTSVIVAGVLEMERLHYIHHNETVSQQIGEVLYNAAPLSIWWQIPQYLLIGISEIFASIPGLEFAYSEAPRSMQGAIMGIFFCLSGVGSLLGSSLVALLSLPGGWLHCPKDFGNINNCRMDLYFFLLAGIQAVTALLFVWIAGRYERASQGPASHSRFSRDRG

[2] = target: T2, full-length human PepT1 (human) (UniProt P46059)
T2 sequence: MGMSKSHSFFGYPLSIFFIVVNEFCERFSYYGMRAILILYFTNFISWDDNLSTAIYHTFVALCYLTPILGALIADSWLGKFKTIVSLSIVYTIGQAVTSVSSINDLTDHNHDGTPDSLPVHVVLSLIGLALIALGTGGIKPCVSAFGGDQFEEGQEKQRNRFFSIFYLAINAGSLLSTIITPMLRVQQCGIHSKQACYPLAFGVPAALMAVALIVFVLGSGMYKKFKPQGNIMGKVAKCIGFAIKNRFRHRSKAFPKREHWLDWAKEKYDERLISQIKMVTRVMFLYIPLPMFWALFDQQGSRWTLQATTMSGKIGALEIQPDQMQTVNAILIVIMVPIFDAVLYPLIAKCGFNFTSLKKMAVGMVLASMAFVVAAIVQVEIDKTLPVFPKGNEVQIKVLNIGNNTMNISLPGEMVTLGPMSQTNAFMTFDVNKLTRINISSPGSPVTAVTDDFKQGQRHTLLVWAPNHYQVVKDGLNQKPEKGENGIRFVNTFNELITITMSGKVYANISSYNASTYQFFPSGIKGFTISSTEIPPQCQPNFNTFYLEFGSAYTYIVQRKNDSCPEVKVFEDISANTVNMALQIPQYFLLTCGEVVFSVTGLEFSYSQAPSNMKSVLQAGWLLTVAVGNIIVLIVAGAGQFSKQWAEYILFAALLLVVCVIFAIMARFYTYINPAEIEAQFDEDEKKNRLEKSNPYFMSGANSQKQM

[3] = target: T3, full-length human PepT2 (human) (UniProt Q16348)
T3 sequence: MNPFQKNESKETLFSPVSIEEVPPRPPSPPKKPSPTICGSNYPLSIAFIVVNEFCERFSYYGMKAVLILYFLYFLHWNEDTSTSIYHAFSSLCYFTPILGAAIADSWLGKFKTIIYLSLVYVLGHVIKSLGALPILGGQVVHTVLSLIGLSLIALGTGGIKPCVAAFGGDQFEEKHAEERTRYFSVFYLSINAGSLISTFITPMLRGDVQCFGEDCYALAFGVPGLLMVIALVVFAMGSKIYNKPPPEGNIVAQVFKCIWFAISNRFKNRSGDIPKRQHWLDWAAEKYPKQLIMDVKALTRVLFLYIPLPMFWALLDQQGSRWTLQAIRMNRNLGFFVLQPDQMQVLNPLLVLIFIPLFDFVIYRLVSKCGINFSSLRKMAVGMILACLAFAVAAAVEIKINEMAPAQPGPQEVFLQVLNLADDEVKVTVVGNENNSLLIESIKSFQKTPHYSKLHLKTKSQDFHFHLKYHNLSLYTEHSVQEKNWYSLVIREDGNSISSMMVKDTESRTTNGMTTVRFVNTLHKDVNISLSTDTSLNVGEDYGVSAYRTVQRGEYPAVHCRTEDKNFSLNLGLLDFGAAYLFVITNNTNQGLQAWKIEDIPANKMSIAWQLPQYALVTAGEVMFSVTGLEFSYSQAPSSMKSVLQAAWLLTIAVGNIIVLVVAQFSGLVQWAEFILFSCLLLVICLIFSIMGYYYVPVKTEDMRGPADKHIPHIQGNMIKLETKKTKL

Measured: binding

full-length chicken TASL, GFP-His-tagged
no binding: all assays above
